According to patent publication US20250283871A1, “COMPOSITIONS AND METHODS FOR MODULATING THE INTERACTION BETWEEN SS18-SSX FUSION ONCOPROTEIN AND NUCLEOSOMES” (Dana-Farber Cancer Institute, Inc., priority 2020, published 2025):

System: BAF complex subunits and histone proteins
Test: Mass spectrometry proteomics of purified HA-SS18 WT and HA-SS18-SSX1 complexes (Tables 5A-5E)
Design: species or system human
Details: HA-SS18WT_NE_peptides: proteins co-purified with HA-SS18 WT from nuclear extract (NE), HEK-293T

Molecule	Total (peptides)	Unique (peptides)
SERAC1 (protein, UniProt Q96JX3 1-654, looked up) Protein SERAC1: MSLAAYCVICCRRIGTSTSPPKSGTHWRDIRNIIKFTGSLILGGSLFLTYEVLALKKAVTLDTQVVEREKMKSYIYVHTVSLDKGENHGIAWQARKELHKAVRKVLATSAKILRNPFADPFSTVDIEDHECAVWLLLRKSKSDDKTTRLEAVREMSETHHWHDYQYRIIAQACDPKTLIGLARSEESDLRFFLLPPPLPSLKEDSSTEEELRQLLASLPQTELDECIQYFTSLALSESSQSLAAQKGGLWCFGGNGLPYAESFGEVPSATVEMFCLEAIVKHSEISTHCDKIEANGGLQLLQRLYRLHKDCPKVQRNIMRVIGNMALNEHLHSSIVRSGWVSIMAEAMKSPHIMESSHAARILANLDRETVQEKYQDGVYVLHPQYRTSQPIKADVLFIHGLMGAAFKTWRQQDSEQAVIEKPMEDEDRYTTCWPKTWLAKDCPALRIISVEYDTSLSDWRARCPMERKSIAFRSNELLRKLRAAGVGDRPVVWISHSMGGLLVKKMLLEASTKPEMSTVINNTRGIIFYSVPHHGSRLAEYSVNIRYLLFPSLEVKELSKDSPALKTLQDDFLEFAKDKNFQVLNFVETLPTYIGSMIKLHVVPVESADLGIGDLIPVDVNHLNICKPKKKDAFLYQRTLQFIREALAKDLEN	1	1
SLC1A4 (protein, UniProt P43007 1-532, looked up) Neutral amino acid …: MEKSNETNGYLDSAQAGPAAGPGAPGTAAGRARRCAGFLRRQALVLLTVSGVLAGAGLGAALRGLSLSRTQVTYLAFPGEMLLRMLRMIILPLVVCSLVSGAASLDASCLGRLGGIAVAYFGLTTLSASALAVALAFIIKPGSGAQTLQSSDLGLEDSGPPPVPKETVDSFLDLARNLFPSNLVVAAFRTYATDYKVVTQNSSSGNVTHEKIPIGTEIEGMNILGLVLFALVLGVALKKLGSEGEDLIRFFNSLNEATMVLVSWIMWYVPVGIMFLVGSKIVEMKDIIVLVTSLGKYIFASILGHVIHGGIVLPLIYFVFTRKNPFRFLLGLLAPFATAFATCSSSATLPSMMKCIEENNGVDKRISRFILPIGATVNMDGAAIFQCVAAVFIAQLNNVELNAGQIFTILVTATASSVGAAGVPAGGVLTIAIILEAIGLPTHDLPLILAVDWIVDRTTTVVNVEGDALGAGILHHLNQKATKKGEQELAEVKVEAIPNCKSEEETSPLVTHQNPAGPVASAPELESKESVL	1	1
RAB10 (protein, UniProt P61026 1-200, looked up) Ras-related protein Rab-10: MAKKTYDLLFKLLLIGDSGVGKTCVLFRFSDDAFNTTFISTIGIDFKIKTVELQGKKIKLQIWDTAGQERFHTITTSYYRGAMGIMLVYDITNGKSFENISKWLRNIDEHANEDVERMLLGNKCDMDDKRVVPKGKGEQIAREHGIRFFETSAKANINIEKAFLTLAEDILRKTPVKEPNSENVDISSGGGVTGWKSKCC	1	1
MMAA (protein, UniProt Q8IVH4 66-418, looked up) Methylmalonic aciduria type A …: CVQTTLKDHTEGLSDKEQRFVDKLYTGLIQGQRACLAEAITLVESTHSRKKELAQVLLQKVLLYHREQEQSNKGKPLAFRVGLSGPPGAGKSTFIEYFGKMLTERGHKLSVLAVDPSSCTSGGSLLGDKTRMTELSRDMNAYIRPSPTRGTLGGVTRTTNEAILLCEGAGYDIILIETVGVGQSEFAVADMVDMFVLLLPPAGGDELQGIKRGIIEMADLVAVTKSDGDLIVPARRIQAEYVSALKLLRKRSQVWKPKVIRISARSGEGISEMWDKMKDFQDLMLASGELTAKRRKQQKVWMWNLIQESVLEHFRTHPTVREQIPLLEQKVLIGALSPGLAADFLLKAFKSRD	1	1
C3orf58 (protein, UniProt Q8NDZ4 36-430, looked up) Divergent protein kinase …: LASWQRNELTDRRFLQLNKCPACFGTSWCRRFLNGQVVFEAWGRLRLLDFLNVKNVYFAQYGEPREGGRRRVVLKRLGSQRELAQLDQSICKRATGRPRCDLLQAMPRTEFARLNGDVRLLTPEAVEGWSDLVHCPSQRLLDRLVRRYAETKDSGSFLLRNLKDSERMQLLLTLAFNPEPLVLQSFPSDEGWPFAKYLGACGRMVAVNYVGEELWSYFNAPWEKRVDLAWQLMEIAEQLTNNDFEFALYLLDVSFDNFAVGPRDGKVIIVDAENVLVADKRLIRQNKPENWDVWYESKFDDCDKEACLSFSKEILCARATVDHNYYAVCQNLLSRHATWRGTSGGLLHDPPSEIAKDGRLEALLDECANPKKRYGRFQAAKELREYLAQLSNNVR	1	1
TMEM126B (protein, UniProt Q8IUX1 2-230, looked up) Complex I assembly factor …: VVFGYEAGTKPRDSGVVPVGTEEAPKVFKMAASMHGQPSPSLEDAKLRRPMVIEIIEKNFDYLRKEMTQNIYQMATFGTTAGFSGIFSNFLFRRCFKVKHDALKTYASLATLPFLSTVVTDKLFVIDALYSDNISKENCVFRSSLIGIVCGVFYPSSLAFTKNGRLATKYHTVPLPPKGRVLIHWMTLCQTQMKLMAIPLVFQIMFGILNGLYHYAVFEETLEKTIHEE	1	1
TMEM147 (protein, UniProt Q9BVK8 1-224, looked up) BOS complex subunit TMEM147: MTLFHFGNCFALAYFPYFITYKCSGLSEYNAFWKCVQAGVTYLFVQLCKMLFLATFFPTWEGGIYDFIGEFMKASVDVADLIGLNLVMSRNAGKGEYKIMVAALGWATAELIMSRCIPLWVGARGIEFDWKYIQMSIDSNISLVHYIVASAQVWMITRYDLYHTFRPAVLLLMFLSVYKAFVMETFVHLCSLGSWAALLARAVVTGLLALSTLALYVAVVNVHS	1	1
NEFH (protein, UniProt P12036 1-1020, looked up) Neurofilament heavy …: MMSFGGADALLGAPFAPLHGGGSLHYALARKGGAGGTRSAAGSSSGFHSWTRTSVSSVSASPSRFRGAGAASSTDSLDTLSNGPEGCMVAVATSRSEKEQLQALNDRFAGYIDKVRQLEAHNRSLEGEAAALRQQQAGRSAMGELYEREVREMRGAVLRLGAARGQLRLEQEHLLEDIAHVRQRLDDEARQREEAEAAARALARFAQEAEAARVDLQKKAQALQEECGYLRRHHQEEVGELLGQIQGSGAAQAQMQAETRDALKCDVTSALREIRAQLEGHAVQSTLQSEEWFRVRLDRLSEAAKVNTDAMRSAQEEITEYRRQLQARTTELEALKSTKDSLERQRSELEDRHQADIASYQEAIQQLDAELRNTKWEMAAQLREYQDLLNVKMALDIEIAAYRKLLEGEECRIGFGPIPFSLPEGLPKIPSVSTHIKVKSEEKIKVVEKSEKETVIVEEQTEETQVTEEVTEEEEKEAKEEEGKEEEGGEEEEAEGGEEETKSPPAEEAASPEKEAKSPVKEEAKSPAEAKSPEKEEAKSPAEVKSPEKAKSPAKEEAKSPPEAKSPEKEEAKSPAEVKSPEKAKSPAKEEAKSPAEAKSPEKAKSPVKEEAKSPAEAKSPVKEEAKSPAEVKSPEKAKSPTKEEAKSPEKAKSPEKEEAKSPEKAKSPVKAEAKSPEKAKSPVKAEAKSPEKAKSPVKEEAKSPEKAKSPVKEEAKSPEKAKSPVKEEAKTPEKAKSPVKEEAKSPEKAKSPEKAKTLDVKSPEAKTPAKEEARSPADKFPEKAKSPVKEEVKSPEKAKSPLKEDAKAPEKEIPKKEEVKSPVKEEEKPQEVKVKEPPKKAEEEKAPATPKTEEKKDSKKEEAPKKEAPKPKVEEKKEPAVEKPKESKVEAKKEEAEDKKKVPTPEKEAPAKVEVKEDAKPKEKTEVAKKEPDDAKAKEPSKPAEKKEAAPEKKDTKEEKAKKPEEKPKTEAKAKEDDKTLSKEPSKPKAEKAEKSSSTDQKDSKPPEKATEDKAAKGK	1	1
